Test results reported in article PMC3433310.
These are yes or no findings as the source states them, for the method shown. In cells and extracts the contact can be indirect. Some entries that bind do so weakly or less than the wild type.

By UniProt entry, the sequences of proteins in these tests, tags left out. Residues count along the entry.
UniProt P00367, residues 54-558: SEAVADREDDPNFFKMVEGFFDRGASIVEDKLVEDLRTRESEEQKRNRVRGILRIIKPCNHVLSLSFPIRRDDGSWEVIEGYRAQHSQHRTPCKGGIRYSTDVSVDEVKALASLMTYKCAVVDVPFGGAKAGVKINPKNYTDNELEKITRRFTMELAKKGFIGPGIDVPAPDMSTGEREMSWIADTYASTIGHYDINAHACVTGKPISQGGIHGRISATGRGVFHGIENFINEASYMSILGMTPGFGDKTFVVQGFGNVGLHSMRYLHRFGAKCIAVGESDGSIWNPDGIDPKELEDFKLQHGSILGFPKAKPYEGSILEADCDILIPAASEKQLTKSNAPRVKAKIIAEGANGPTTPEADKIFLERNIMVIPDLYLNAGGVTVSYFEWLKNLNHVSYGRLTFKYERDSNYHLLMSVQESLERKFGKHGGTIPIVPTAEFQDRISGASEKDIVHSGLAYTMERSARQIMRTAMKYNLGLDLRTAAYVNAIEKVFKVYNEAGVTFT

Target: glutamate dehydrogenase (GDH) (human (endogenous in lymphoblasts)) (UniProt P00367)
Assay: co-IP; GDH immunoprecipitated from 300 ug lymphoblast mitochondrial lysate with 1 ug rabbit polyclonal GDH antibody and protein A sepharose; blot probed with mouse monoclonal antibody to HADH

B1: 3-hydroxyacyl-CoA dehydrogenase (HADH) (enzyme, UniProt Q16836 13-314)
chain: SSSSTASASAKKIIVKHVTVIGGGLMGAGIAQVAAATGHTVVLVDQTEDILAKSKKGIEESLRKVAKKKFAENLKAGDEFVEKTLSTIATSTDAASVVHSTDLVVEAIVENLKVKNELFKRLDKFAAEHTIFASNTSSLQITSIANATTRQDRFAGLHFFNPVPVMKLVEVIKTPMTSQKTFESLVDFSKALGKHPVSCKDTPGFIVNRLLVPYLMEAIRLYERGDASKEDIDTAMKLGAGYPMGPFELLDYVGLDTTKFIVDGWHEMDAENPLHQPSPSLNKLVAENKFGKKTGEGFYKYK
binding: binds
